Results reported in PubChem BioAssay AID1347076 (National Center for Advancing Translational Sciences (NCATS), 2019).
Screen size: about 400,000 compounds; about 13,000 (3.2%) were called active. This list was built around the results that the source calls inconclusive (neither active nor inactive); the mix of calls is not that of the screen. The call rests on the fitted dose curve; in most records, active means well fitted cell-killing curve with a large enough effect; inconclusive means small, poorly fitted or top-dose-only effect, or effect the other way; inactive means flat fitted curve, though single readings scatter. Potencies beside an inconclusive call are fits to weak or partial responses and may not hold up. Where a structure was tested more than once in an assay, its records may differ in their call.

assay: qHTS assay for MDR1-selective chemotherapeutics: Primary screen using the drug-selected MDR subline cells KB-V1; details: KB-V1 MDR cells viability, CellTiter-Glo, 72 h; activity change, negative = cytotoxicity: at 46.1 µM (top of the series); further: nearly all actives have a fitted effect of over 60% in size
Method in brief: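 Cytotoxicity toward P-gp-expressing KB-V1 cells was determined as loss of CellTiter-Glo luminescence after 72 h at 37 degrees C. Compounds were tested in quantitative HTS format across a concentration range, with curves fitted to normalized data.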
On the % scale 0 is the no-effect control and ±100 the full control effect; potency means the concentration at half of the fitted maximal effect.

SMILES	activity change, negative = cytotoxicity	Potency
O=C(CSc1nnc(-c2ccco2)o1)c1ccc(O)cc1O	inactive: 0%	–
Cc1ccc(C(=O)NCC(=O)Nc2cc(C)ccn2)cc1	–	inconclusive: 3.26 µM [rising, partial curve, poor fit]
Cc1ccc(-c2cc(C(=O)N3CCN(c4ccccc4O)CC3)c3ccccc3n2)cc1	–	inconclusive: 18.4 µM [cytotoxic, single point]
Cc1ccc(S(=O)(=O)N2CCC(=O)N(C(COCc3ccc(Cl)cc3)C(C)C)CC2)cc1 (configuration not stated)	–	inconclusive: 32.6 µM [cytotoxic, single point]
CCOC(=O)CSc1nc2ccccc2c(=O)n1CC1CCC(C(=O)NCc2ccco2)CC1 (configuration not stated)	–	inconclusive: 4.11 µM [cytotoxic, partial curve]
O=C(Nc1ccc(N2C(=O)C3C4C=CC(C4)C3C2=O)cc1)Nc1nncs1 (configuration not stated)	–	inconclusive: 0.0073 µM [rising, full curve, poor fit]
N#Cc1ccccc1S(=O)(=O)N1CCN(C(=O)CCc2ccccc2)CC1	–	inconclusive: 20.6 µM [cytotoxic, single point]
Ic1ccc(Nc2nc(NCCN3CCOCC3)nc(N3CCCC3)n2)cc1	–	inconclusive: 8.2 µM [rising, single point]
Cc1ccc(NC(=S)NCCN2CCOCC2)cc1C	–	inconclusive: 29.1 µM [cytotoxic, single point]
O=C(c1ccc(COc2ccc3ccccc3c2)o1)N1N=C(C(F)F)CC1(O)C(F)F (configuration not stated)	–	inconclusive: 16.4 µM [cytotoxic, single point]
O=C(Cc1ccc(Br)cc1)N(Cc1ccccc1)c1ccccn1	–	inconclusive: 14.6 µM [cytotoxic, partial curve]
COc1cc2c(cc1OC)C(Cc1cc(OC)c(OC)cc1[N+](=O)[O-])=NCC2	–	active: 9.2 µM
O=C(NCc1ccccn1)C(=O)NCC(c1ccco1)N1CCN(c2ccc(F)cc2)CC1 (configuration not stated)	–	inconclusive: 14.6 µM [cytotoxic, partial curve]
OCC1CCN(Cc2cn(Cc3ccccc3)nc2-c2cc3ccccc3o2)CC1	–	inconclusive: 10.3 µM [cytotoxic, partial curve, poor fit]
CCCNC(=O)Cn1nc(-c2ccc(OC)cc2)c2cnc3ccc(F)cc3c21	inactive: 9.64%	–
O=C(NCCNC(=O)c1cc(OCC(F)(F)F)ccc1OCC(F)(F)F)Nc1cccc(C(F)(F)F)c1	–	inconclusive: 29.1 µM [cytotoxic, single point]
Cc1ccc(-c2c(C(=O)N/N=C/c3cccc(Cl)c3)nnn2-c2nonc2N)cc1	–	inconclusive: 29.1 µM [cytotoxic, single point]
CCC(CO)n1c(SCc2cc([N+](=O)[O-])cc3c2OCOC3)nc2ccccc2c1=O (configuration not stated)	–	inconclusive: 5.17 µM [cytotoxic, partial curve]
CC1CCCC(NC(=O)COC(=O)c2ccc3c(c2)OCCO3)C1C (configuration not stated)	–	inconclusive: 10.3 µM [rising, partial curve, poor fit]
CCOc1ccc(S(=O)(=O)N2CCOCC2)cc1NC(=O)CSCc1ccc(C)cc1	–	inconclusive: 23.1 µM [cytotoxic, single point]
O=S(=O)(c1ccccc1)N1CCN(Cc2ccccc2C(F)(F)F)CC1	inactive: -7.79%	–
C[C@@H](CSc1ccccc1)CN1CC[C@H](C(C)(C)C)CCC1=O	–	active: 18.4 µM
NNC(=O)c1sc2cc(C(F)(F)F)cnc2c1-c1cccs1	inactive: 1.13%	–

13 entries from above, in markdown.

| SMILES | activity change, negative = cytotoxicity | Potency |
| --- | --- | --- |
| O=C(Cc1ccc(Br)cc1)N(Cc1ccccc1)c1ccccn1 | – | inconclusive: 14.6 µM [cytotoxic, partial curve] |
| COc1cc2c(cc1OC)C(Cc1cc(OC)c(OC)cc1[N+](=O)[O-])=NCC2 | – | active: 9.2 µM |
| O=C(NCc1ccccn1)C(=O)NCC(c1ccco1)N1CCN(c2ccc(F)cc2)CC1 (configuration not stated) | – | inconclusive: 14.6 µM [cytotoxic, partial curve] |
| OCC1CCN(Cc2cn(Cc3ccccc3)nc2-c2cc3ccccc3o2)CC1 | – | inconclusive: 10.3 µM [cytotoxic, partial curve, poor fit] |
| CCCNC(=O)Cn1nc(-c2ccc(OC)cc2)c2cnc3ccc(F)cc3c21 | inactive: 9.64% | – |
| O=C(NCCNC(=O)c1cc(OCC(F)(F)F)ccc1OCC(F)(F)F)Nc1cccc(C(F)(F)F)c1 | – | inconclusive: 29.1 µM [cytotoxic, single point] |
| Cc1ccc(-c2c(C(=O)N/N=C/c3cccc(Cl)c3)nnn2-c2nonc2N)cc1 | – | inconclusive: 29.1 µM [cytotoxic, single point] |
| CCC(CO)n1c(SCc2cc([N+](=O)[O-])cc3c2OCOC3)nc2ccccc2c1=O (configuration not stated) | – | inconclusive: 5.17 µM [cytotoxic, partial curve] |
| CC1CCCC(NC(=O)COC(=O)c2ccc3c(c2)OCCO3)C1C (configuration not stated) | – | inconclusive: 10.3 µM [rising, partial curve, poor fit] |
| CCOc1ccc(S(=O)(=O)N2CCOCC2)cc1NC(=O)CSCc1ccc(C)cc1 | – | inconclusive: 23.1 µM [cytotoxic, single point] |
| O=S(=O)(c1ccccc1)N1CCN(Cc2ccccc2C(F)(F)F)CC1 | inactive: -7.79% | – |
| C[C@@H](CSc1ccccc1)CN1CC[C@H](C(C)(C)C)CCC1=O | – | active: 18.4 µM |
| NNC(=O)c1sc2cc(C(F)(F)F)cnc2c1-c1cccs1 | inactive: 1.13% | – |

Later entries.

SMILES	activity change, negative = cytotoxicity	Potency
O=C(COc1cnc2ccccc2n1)NCCC1=CCCCC1	–	inconclusive: 20.6 µM [cytotoxic, partial curve]
Cn1c(C(=O)N2CCN(C(=O)c3ccco3)CC2)cc2c(=O)n(C)c3ccccc3c21	inactive: -0.991%	–
O=C(OCC#CCSc1nnc(-c2cccc3ccccc23)o1)c1cc2ccccc2o1	–	inconclusive: 29.1 µM [rising, single point]
COc1ccccc1CC(=O)Nc1ccc2nc(Nc3cccc(C(F)(F)F)c3)cc(C)c2c1	–	inconclusive: 29.1 µM [cytotoxic, single point]
Cc1ccc(-n2ncc3c(NCc4ccco4)ncnc32)c(C)c1	–	inconclusive: 29.1 µM [cytotoxic, single point]
COC(=O)c1scc(-c2ccc(C)cc2)c1S(=O)(=O)N1CCN(c2ccc(F)cc2)CC1	inactive: 4.74%	–
O=C(Nc1ccc(F)cc1)Nc1ccc2c(c1)OCO2	inactive: 0%	–
Cc1nc2ccccc2nc1/C=C/c1ccc(N(C)C)cc1	–	inconclusive: 23.1 µM [cytotoxic, single point]
NC(=O)CC[C@@H]1NC(=O)[C@H](CO)NC(=O)c2cc([N+](=O)[O-])cc(I)c2OCC[C@@H](C(N)=O)NC1=O	–	inconclusive: 29.1 µM [rising, single point]
O=C(NC1CCCCC1)c1ccc(CSc2nc3cccnc3n2Cc2cccc(F)c2)cc1	–	inconclusive: 4.11 µM [cytotoxic, full curve]
CCOc1ccc(NC(=O)c2ccc3c(c2)OCCO3)cc1S(=O)(=O)N(CC)CC	–	inconclusive: 32.6 µM [cytotoxic, single point]
Cc1ccc(S(=O)(=O)NC(C)C(=O)OCC(=O)N(C)c2ccccc2)cc1 (configuration not stated)	–	inconclusive: 29.1 µM [rising, single point]
COc1ccc2nc(N3C(=O)/C(=C/c4ccc(Cl)cc4)NC3=S)sc2c1	–	inconclusive: 29.1 µM [cytotoxic, single point]
Fc1cccc(NC(=S)Nc2cccnc2)c1	inactive: -8.75%	–
CC(=O)Cc1nsc(NC(=O)c2ccc(COc3cccc(C)c3)o2)n1	–	inconclusive: 29.1 µM [rising, single point]
O=C(Cn1nc(-c2ccccc2)oc1=O)OCC(=O)c1ccccc1	inactive: 0%	–
Cc1ccccc1OCCC(=O)Nc1cccc(S(=O)(=O)Nc2ccccc2Cl)c1	–	active: 11.6 µM
COCc1ccccc1C1=CC(=O)C[C@H](c2ccc(F)cc2)C1	–	inconclusive: 23.1 µM [cytotoxic, single point]
CC1(C)Cc2ccccc2-c2n[nH]c(=S)n21	–	inconclusive: 18.4 µM [cytotoxic, single point]
CCOc1ccc(NC(=O)CCc2c(C)nc3cc(-c4ccccc4OC)nn3c2C)cc1	inactive: 11.8%	–
N#CC1=C(N)Oc2c(ccc3ccccc23)C1c1ccsc1 (configuration not stated)	–	inconclusive: 0.411 µM [cytotoxic, partial curve, poor fit]
O=C(NC(C(=O)N1CCCC1C(=O)O)=C1CCCCC1)c1ccccc1 (configuration not stated)	–	inconclusive: 20.6 µM [rising, partial curve, poor fit]
c1csc(CSc2nnc3sc4ccccc4n23)c1	–	inconclusive: 10.3 µM [cytotoxic, partial curve]

SMILES	activity change, negative = cytotoxicity	Potency
Cc1ccc(N(C)S(=O)(=O)c2ccc3[nH]c(=O)ccc3c2)cc1	inactive: 15.8%	–
Cn1nc(C(C)(C)C)cc1C(=O)NCc1cc(F)cc2c1OCOC2	–	inconclusive: 3.26 µM [cytotoxic, full curve]
O=C(O)c1ccc(NS(=O)(=O)c2ccc(Cl)c(C(=O)Nc3ccccc3)c2)cc1	–	inconclusive: 18.4 µM [rising, partial curve, poor fit]
O=C(CNc1cccc([N+](=O)[O-])c1)N1CCN(S(=O)(=O)c2ccc(Cl)cc2)CC1	–	inconclusive: 8.2 µM [cytotoxic, partial curve]
CCCC(=O)N1CCN(c2ccc(NC(=O)c3ccc4c(c3)OCCO4)cc2)CC1	–	inconclusive: 2.06 µM [cytotoxic, full curve, poor fit]
CCCc1nc2ccccc2c(=O)n1NC(=O)c1c(O)c2ccccc2[nH]c1=O	–	active: 7.31 µM
O=c1[nH]cnc2c1sc1nc(-c3ccccc3)c3c(c12)CCCC3	inactive: -9.35%	–
Cc1ccc([N+](=O)[O-])cc1NC(=O)/C=C/C(=O)O	–	inconclusive: 11.6 µM [rising, partial curve, poor fit]
CCOC(=O)c1sc(-c2ccc(F)cc2)cc1NC(=O)Nc1ccccc1OC	–	inconclusive: 13 µM [cytotoxic, partial curve]
Cc1ccccc1NS(=O)(=O)c1ccc(F)cc1	inactive: 12.3%	–
C=CCn1c(SCC(=O)c2cc(C)n(C(C)COC)c2C)nc2sc(C)c(C)c2c1=O (configuration not stated)	–	active: 8.2 µM
COc1ccc(NC(=O)CSc2ccc3nnc(-c4ccccn4)n3n2)cc1	inactive: -2.05%	–
Cc1ccc(SCc2cc(=O)[nH]c(Nc3nc(C)c4ccc(C)cc4n3)n2)cc1	inactive: 5.47%	–
COc1cc2c(cc1OC)/C(=C/C(=O)OCc1ccccc1)OC2	–	inconclusive: 5.8 µM [cytotoxic, partial curve]
O=[N+]([O-])c1ccc(NCCCNS(=O)(=O)c2ccccc2)c(Cl)c1	–	inconclusive: 20.6 µM [cytotoxic, single point]
N#C/C(=C\c1c[nH]c2ccccc12)C(=O)Nc1ncc(Cc2ccc(Cl)cc2Cl)s1	–	inconclusive: 18.4 µM [cytotoxic, single point]
CCOC(=O)C1(C)CCCN1C(=O)c1ccc(N(C)C)cc1 (configuration not stated)	inactive: 4.08%	–
CCOC1=C2CN(S(=O)(=O)c3ccc(C)cc3)C(c3cccc(Cl)c3)CC2NC(c2ccccc2)C1 (configuration not stated)	–	inconclusive: 14.6 µM [cytotoxic, partial curve]
COc1cccc(CN2C(=O)C3(SCC(=O)N3c3ccc(C)c(Cl)c3)c3ccccc32)c1 (configuration not stated)	–	active: 13 µM
COC(=O)N/N=C(C)\C=C\c1ccco1	–	inconclusive: 16.4 µM [rising, single point]
Fc1ccc(NC(=S)N/N=C/c2cccc(Br)c2)c(F)c1	–	inconclusive: 23.1 µM [cytotoxic, partial curve, poor fit]
